From the supplement of paper PMC12823440, “Inhibitors supercharge kinase turnover through native proteolytic circuits” (Nature, 2025)
Some of the results follow. Hit calls seldom repeat between salt and free forms of one compound.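 In K562 cells expressing nanoluciferase-fused kinases, luminescence was recorded at 4 h intervals between 2 and 18 h, normalized as percent of control with DMSO at 100% and a positive control at 0%. A significant (2 sigma) signal drop marks a time point as decreased. The authors' rule for a hit is not shown and takes in more than the number of time points.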

The chains behind the UniProt entries cited, without tags or fusion partners. Where a name states a change or a piece, a line headed by the entry shows the natural chain unless it says otherwise.
UniProt P42680: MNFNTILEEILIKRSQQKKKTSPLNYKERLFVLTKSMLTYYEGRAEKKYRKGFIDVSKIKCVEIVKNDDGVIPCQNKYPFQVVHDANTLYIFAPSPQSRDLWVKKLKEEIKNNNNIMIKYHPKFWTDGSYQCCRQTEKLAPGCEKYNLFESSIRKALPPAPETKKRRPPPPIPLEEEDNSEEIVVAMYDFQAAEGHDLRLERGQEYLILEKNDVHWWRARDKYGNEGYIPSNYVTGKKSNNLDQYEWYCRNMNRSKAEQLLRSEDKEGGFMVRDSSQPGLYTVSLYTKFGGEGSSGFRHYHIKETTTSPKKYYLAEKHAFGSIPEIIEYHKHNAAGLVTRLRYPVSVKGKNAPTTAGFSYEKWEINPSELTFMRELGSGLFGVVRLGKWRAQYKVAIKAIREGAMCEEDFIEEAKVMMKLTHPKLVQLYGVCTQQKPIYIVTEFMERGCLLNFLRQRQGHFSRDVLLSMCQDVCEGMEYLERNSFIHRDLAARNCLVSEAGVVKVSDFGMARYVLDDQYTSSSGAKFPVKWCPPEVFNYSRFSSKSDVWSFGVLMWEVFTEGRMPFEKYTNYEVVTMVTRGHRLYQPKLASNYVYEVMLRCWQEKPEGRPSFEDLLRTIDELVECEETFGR
UniProt P29597: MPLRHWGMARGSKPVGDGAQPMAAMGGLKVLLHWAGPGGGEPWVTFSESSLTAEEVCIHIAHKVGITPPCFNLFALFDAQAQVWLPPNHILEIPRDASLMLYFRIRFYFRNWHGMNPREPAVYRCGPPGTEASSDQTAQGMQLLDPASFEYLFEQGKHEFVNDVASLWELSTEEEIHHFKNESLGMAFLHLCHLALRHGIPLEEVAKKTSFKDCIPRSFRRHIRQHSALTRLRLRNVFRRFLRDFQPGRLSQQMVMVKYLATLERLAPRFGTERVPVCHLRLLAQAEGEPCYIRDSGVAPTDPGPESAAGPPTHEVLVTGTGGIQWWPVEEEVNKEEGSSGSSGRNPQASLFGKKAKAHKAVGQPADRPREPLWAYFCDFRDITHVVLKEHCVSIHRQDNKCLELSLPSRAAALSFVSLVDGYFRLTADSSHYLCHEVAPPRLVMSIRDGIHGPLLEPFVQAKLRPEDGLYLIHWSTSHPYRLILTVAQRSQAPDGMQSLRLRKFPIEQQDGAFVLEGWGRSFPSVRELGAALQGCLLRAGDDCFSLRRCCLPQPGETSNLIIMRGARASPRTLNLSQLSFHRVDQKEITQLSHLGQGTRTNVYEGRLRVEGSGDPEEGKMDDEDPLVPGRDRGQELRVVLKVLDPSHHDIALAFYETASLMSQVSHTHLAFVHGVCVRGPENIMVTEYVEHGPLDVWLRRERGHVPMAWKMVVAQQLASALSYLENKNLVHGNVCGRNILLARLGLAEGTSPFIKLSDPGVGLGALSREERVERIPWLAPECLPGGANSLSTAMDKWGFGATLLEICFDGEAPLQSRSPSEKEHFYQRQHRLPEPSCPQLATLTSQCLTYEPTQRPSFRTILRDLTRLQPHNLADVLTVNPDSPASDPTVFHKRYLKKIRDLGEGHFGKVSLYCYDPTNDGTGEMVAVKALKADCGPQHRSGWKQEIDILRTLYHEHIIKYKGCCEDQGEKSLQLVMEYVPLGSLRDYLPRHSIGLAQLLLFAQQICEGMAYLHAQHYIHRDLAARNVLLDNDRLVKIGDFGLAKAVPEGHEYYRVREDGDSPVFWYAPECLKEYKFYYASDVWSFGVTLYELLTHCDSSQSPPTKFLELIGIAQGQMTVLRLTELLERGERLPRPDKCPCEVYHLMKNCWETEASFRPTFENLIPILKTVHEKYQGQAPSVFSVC
UniProt Q6PHR2: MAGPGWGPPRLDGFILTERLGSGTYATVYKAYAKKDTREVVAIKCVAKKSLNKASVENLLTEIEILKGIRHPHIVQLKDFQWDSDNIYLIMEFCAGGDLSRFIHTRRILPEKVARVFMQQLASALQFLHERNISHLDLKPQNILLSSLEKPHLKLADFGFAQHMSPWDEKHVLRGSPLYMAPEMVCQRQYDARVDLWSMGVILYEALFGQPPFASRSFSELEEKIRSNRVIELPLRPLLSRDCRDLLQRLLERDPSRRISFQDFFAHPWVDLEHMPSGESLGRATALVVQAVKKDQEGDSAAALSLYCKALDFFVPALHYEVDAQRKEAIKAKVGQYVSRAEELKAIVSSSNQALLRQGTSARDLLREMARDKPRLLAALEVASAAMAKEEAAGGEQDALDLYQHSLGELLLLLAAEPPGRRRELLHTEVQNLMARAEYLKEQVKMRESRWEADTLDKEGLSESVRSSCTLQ
UniProt P31749: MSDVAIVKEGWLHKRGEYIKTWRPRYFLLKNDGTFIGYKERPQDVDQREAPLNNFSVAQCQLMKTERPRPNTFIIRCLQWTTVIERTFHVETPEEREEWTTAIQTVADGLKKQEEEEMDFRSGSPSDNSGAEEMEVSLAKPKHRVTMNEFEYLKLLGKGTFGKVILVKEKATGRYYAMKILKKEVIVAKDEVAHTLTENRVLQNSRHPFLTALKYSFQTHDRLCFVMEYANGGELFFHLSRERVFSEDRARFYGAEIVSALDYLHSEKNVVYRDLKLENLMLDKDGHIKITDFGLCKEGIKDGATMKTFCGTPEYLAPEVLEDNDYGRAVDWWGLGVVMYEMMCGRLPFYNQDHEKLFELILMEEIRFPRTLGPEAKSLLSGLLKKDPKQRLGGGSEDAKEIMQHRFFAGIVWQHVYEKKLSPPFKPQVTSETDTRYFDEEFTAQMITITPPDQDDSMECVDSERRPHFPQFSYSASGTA
UniProt Q9UM73: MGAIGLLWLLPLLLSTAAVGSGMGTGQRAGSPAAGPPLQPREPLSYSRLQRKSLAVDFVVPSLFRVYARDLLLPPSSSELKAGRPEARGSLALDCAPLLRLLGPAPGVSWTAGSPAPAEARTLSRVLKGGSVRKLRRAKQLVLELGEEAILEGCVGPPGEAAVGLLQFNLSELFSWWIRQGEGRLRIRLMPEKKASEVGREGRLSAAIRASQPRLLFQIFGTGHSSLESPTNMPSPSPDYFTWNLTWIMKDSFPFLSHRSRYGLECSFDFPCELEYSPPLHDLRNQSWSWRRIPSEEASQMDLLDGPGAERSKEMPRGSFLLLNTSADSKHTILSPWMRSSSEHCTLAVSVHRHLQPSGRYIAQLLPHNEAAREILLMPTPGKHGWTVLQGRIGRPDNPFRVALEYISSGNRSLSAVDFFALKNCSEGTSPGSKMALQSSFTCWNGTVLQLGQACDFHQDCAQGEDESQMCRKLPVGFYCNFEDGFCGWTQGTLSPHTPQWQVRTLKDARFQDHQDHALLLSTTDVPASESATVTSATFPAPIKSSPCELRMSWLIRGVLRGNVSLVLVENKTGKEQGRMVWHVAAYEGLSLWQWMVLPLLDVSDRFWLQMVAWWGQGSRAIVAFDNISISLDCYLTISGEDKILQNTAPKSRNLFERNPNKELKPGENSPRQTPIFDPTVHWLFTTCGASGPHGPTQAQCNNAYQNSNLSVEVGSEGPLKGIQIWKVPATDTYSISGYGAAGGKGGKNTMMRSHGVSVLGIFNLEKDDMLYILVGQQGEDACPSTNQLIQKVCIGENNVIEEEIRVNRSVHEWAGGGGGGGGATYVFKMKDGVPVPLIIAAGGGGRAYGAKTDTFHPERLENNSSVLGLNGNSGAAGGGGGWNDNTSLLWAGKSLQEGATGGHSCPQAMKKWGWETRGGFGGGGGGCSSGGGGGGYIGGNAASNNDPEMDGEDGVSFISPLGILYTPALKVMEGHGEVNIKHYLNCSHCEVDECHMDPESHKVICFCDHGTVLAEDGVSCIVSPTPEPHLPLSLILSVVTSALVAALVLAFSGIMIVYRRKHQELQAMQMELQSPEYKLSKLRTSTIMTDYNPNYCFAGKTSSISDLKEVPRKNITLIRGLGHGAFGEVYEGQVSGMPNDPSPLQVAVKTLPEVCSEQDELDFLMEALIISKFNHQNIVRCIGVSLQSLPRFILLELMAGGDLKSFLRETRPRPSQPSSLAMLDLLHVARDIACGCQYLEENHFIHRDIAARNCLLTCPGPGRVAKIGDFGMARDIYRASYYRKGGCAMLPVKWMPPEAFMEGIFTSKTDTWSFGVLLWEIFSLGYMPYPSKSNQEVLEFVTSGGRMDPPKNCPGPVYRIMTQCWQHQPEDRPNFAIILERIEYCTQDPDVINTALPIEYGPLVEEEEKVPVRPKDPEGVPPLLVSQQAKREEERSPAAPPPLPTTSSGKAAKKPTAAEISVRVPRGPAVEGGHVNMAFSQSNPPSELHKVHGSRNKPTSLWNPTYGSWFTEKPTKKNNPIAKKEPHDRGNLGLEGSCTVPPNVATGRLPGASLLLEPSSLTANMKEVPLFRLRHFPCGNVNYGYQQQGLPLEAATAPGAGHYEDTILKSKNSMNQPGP
UniProt O14965: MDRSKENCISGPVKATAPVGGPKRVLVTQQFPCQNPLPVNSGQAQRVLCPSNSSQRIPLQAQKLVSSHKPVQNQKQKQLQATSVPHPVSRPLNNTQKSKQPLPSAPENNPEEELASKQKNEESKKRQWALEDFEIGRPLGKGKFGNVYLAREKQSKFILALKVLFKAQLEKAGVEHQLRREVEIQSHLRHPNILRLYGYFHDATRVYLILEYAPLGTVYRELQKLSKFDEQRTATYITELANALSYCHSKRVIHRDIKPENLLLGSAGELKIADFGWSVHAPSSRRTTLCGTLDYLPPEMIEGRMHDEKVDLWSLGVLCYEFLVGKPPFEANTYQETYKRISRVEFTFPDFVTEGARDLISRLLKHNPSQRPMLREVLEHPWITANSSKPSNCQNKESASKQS
UniProt Q96GD4, whole entry: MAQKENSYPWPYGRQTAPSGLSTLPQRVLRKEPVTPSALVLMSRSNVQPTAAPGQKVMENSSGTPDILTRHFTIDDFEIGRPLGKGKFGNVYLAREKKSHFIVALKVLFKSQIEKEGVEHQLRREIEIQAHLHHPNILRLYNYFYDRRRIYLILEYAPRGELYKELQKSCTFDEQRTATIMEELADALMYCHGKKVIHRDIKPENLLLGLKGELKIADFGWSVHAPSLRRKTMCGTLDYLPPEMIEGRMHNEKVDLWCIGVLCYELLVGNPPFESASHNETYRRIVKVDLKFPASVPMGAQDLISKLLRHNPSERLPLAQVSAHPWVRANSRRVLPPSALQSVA
UniProt P51451: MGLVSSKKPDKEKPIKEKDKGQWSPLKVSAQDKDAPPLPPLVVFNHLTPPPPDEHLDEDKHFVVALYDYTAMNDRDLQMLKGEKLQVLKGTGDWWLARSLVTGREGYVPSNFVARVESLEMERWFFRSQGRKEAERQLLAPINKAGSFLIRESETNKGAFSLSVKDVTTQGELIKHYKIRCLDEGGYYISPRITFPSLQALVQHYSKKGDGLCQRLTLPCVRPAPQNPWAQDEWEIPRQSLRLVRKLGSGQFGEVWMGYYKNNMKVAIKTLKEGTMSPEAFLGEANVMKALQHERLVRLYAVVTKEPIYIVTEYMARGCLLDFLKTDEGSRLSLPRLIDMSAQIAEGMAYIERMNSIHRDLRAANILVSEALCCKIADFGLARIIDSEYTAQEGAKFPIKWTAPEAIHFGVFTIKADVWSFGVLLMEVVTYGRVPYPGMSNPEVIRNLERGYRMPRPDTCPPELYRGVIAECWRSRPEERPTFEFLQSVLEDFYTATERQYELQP
UniProt P15056, whole entry, looked up: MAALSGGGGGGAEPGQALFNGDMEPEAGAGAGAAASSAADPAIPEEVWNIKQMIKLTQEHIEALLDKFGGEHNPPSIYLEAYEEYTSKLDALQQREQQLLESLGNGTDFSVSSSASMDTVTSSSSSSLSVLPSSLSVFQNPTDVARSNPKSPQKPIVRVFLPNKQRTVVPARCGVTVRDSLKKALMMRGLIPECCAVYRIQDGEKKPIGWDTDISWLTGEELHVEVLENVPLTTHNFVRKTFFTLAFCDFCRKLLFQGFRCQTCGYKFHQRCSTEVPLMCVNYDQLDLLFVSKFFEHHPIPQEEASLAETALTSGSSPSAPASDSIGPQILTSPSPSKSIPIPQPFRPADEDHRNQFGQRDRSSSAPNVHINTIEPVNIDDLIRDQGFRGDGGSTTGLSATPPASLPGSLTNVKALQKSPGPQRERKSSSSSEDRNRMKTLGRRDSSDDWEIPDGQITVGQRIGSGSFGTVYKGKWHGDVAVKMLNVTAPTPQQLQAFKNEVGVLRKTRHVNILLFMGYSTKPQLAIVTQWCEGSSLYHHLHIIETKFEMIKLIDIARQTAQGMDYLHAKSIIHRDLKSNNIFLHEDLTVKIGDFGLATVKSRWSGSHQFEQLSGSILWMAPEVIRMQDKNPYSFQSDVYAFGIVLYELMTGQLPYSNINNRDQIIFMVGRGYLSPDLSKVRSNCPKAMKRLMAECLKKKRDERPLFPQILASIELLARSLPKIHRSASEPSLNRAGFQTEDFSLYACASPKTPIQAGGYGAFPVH

How the values were obtained:
Conditions in all cases: K562; 2-18 h
[1] = molecular target: STK38 (UniProt Q15208); assay: kinase-Nluc reporter destabilization hit call (1 = scored as downregulated) (binary); higher = compound decreases kinase abundance
[2] = molecular target: SYK (UniProt P43405); assay: as above
[3] = molecular target: TEC (UniProt P42680); assay: as above
[4] = molecular target: TYK2 (UniProt P29597); assay: as above
[5] = molecular target: ULK3 (UniProt Q6PHR2); assay: as above
[6] = molecular target: YES1 (UniProt P07947); assay: as above
[7] = molecular target: ZAK (UniProt Q9NYL2); assay: as above
[8] = molecular target: ZAP70 (UniProt P43403); assay: as above
[9] = molecular target: ABL1 (UniProt P00519); assay: number of time points (of 5) at which kinase-Nluc abundance scored as decreased, DMSO-normalised (count); higher = more persistent destabilization
[10] = molecular target: AKT1 (UniProt P31749); assay: as above
[11] = molecular target: ALK (UniProt Q9UM73); assay: as above
[12] = molecular target: ARAF (UniProt P10398); assay: as above
[13] = molecular target: AURKA (UniProt O14965); assay: as above
[14] = molecular target: AURKB (UniProt Q96GD4); assay: as above
[15] = molecular target: AURKC (UniProt Q9UQB9); assay: as above
[16] = molecular target: BLK (UniProt P51451); assay: as above
[17] = molecular target: BMX (UniProt P51813); assay: as above
[18] = molecular target: BRAF (UniProt P15056); assay: as above
[19] = system: BRAF_V600E; assay: as above
[20] = molecular target: BTK (UniProt Q06187); assay: as above

SMILES	kinase-Nluc reporter destabilization hit call [1]	kinase-Nluc reporter destabilization hit call [2]	kinase-Nluc reporter destabilization hit call [3]	kinase-Nluc reporter destabilization hit call [4]	kinase-Nluc reporter destabilization hit call [5]	kinase-Nluc reporter destabilization hit call [6]	kinase-Nluc reporter destabilization hit call [7]	kinase-Nluc reporter destabilization hit call [8]	number of time points [9]	number of time points [10]	number of time points [11]	number of time points [12]	number of time points [13]	number of time points [14]	number of time points [15]	number of time points [16]	number of time points [17]	number of time points [18]	number of time points [19]	number of time points [20]
N#Cc1cnc2c(Cl)cc(NCc3cn(CCN4CCCCCC4)nn3)cc2c1Nc1ccc(F)c(Cl)c1 [Cot inhibitor-1] (10 µM)	inactive: 0	inactive: 0	inactive: 0	inactive: 0	inactive: 0	inactive: 0	inactive: 0	inactive: 0	0	0	0	0	0	0	0	0	0	3	0	0
Cc1cc(C(=O)Nc2nc3cccc(Cl)c3n2[C@@H]2CCCCN(C(=O)/C=C/CN(C)C)C2)ccn1 [Nazartinib] (10 µM)	inactive: 0	inactive: 0	inactive: 0	inactive: 0	inactive: 0	inactive: 0	inactive: 0	inactive: 0	0	0	0	0	0	0	0	0	0	0	0	0
NC[C@@](O)(c1ccc(Cl)cc1)c1ccc(-c2cn[nH]c2)cc1 (10 µM)	inactive: 0	inactive: 0	inactive: 0	inactive: 0	inactive: 0	inactive: 0	inactive: 0	inactive: 0	0	0	0	0	0	0	0	0	0	0	0	0
COc1cc2cc(Oc3ccc4ccc(=O)oc4c3)c(=O)oc2cc1O [Daphnoretin] (10 µM)	inactive: 0	inactive: 0	inactive: 0	inactive: 0	inactive: 0	inactive: 0	inactive: 0	inactive: 0	0	0	0	0	0	0	0	0	0	0	0	0
Cn1c(=O)c2c(nc(S(C)(=O)=O)n2C)n(CC#Cc2cccc(O)c2)c1=O (2.5 µM)	inactive: 0	inactive: 0	inactive: 0	inactive: 0	inactive: 0	inactive: 0	inactive: 0	inactive: 0	0	0	0	0	0	0	0	0	0	0	0	0
O=C(O)[C@H]1O[C@@H](Oc2cc3oc(-c4ccc(O)cc4)cc(=O)c3c(O)c2O)[C@H](O)[C@@H](O)[C@@H]1O [Scutellarin] (10 µM)	inactive: 0	inactive: 0	inactive: 0	inactive: 0	inactive: 0	inactive: 0	inactive: 0	inactive: 0	0	0	0	0	0	0	0	0	0	0	0	0
C=CC(=O)N1CC[C@@H](Oc2nc(Nc3ccc(N4CCC(N5CCN(C)CC5)CC4)cc3)c(C(N)=O)nc2CC)C1 [Naquotinib (mesylate)] (2.5 µM)	inactive: 0	inactive: 0	inactive: 0	inactive: 0	inactive: 0	inactive: 0	inactive: 0	inactive: 0	0	0	0	0	0	0	0	0	0	0	0	0
COCCOc1ccc2c(c1)ncn2-c1ccc2cccc(N3CCC(N)CC3)c2n1 (10 µM)	inactive: 0	inactive: 0	inactive: 0	inactive: 0	inactive: 0	inactive: 0	inactive: 0	inactive: 0	4	0	2	0	3	3	0	2	3	1	4	0
C#Cc1cccc(Nc2ncnc3cc(OC)c(NC(=O)N4C[C@H]5CCN(C)[C@H]5C4)cc23)c1 [Theliatinib] (10 µM)	inactive: 0	inactive: 0	inactive: 0	inactive: 0	inactive: 0	inactive: 0	inactive: 0	inactive: 0	0	0	0	0	0	0	0	0	0	0	0	0
COc1ccc2c3n(c(=NC(=O)c4cccnc4)nc2c1OC)CCN3 (2 µM)	inactive: 0	inactive: 0	inactive: 0	inactive: 0	inactive: 0	inactive: 0	inactive: 0	inactive: 0	0	0	0	0	0	0	0	0	0	0	0	0
